The supplement of paper PMC7666118
The other results are listed elsewhere or left out.

Sequences of proteins named here, by UniProt entry; tags and fusion partners are left off. A change or cut given only in a name is not applied to a line headed by its entry.
UniProt Q12923: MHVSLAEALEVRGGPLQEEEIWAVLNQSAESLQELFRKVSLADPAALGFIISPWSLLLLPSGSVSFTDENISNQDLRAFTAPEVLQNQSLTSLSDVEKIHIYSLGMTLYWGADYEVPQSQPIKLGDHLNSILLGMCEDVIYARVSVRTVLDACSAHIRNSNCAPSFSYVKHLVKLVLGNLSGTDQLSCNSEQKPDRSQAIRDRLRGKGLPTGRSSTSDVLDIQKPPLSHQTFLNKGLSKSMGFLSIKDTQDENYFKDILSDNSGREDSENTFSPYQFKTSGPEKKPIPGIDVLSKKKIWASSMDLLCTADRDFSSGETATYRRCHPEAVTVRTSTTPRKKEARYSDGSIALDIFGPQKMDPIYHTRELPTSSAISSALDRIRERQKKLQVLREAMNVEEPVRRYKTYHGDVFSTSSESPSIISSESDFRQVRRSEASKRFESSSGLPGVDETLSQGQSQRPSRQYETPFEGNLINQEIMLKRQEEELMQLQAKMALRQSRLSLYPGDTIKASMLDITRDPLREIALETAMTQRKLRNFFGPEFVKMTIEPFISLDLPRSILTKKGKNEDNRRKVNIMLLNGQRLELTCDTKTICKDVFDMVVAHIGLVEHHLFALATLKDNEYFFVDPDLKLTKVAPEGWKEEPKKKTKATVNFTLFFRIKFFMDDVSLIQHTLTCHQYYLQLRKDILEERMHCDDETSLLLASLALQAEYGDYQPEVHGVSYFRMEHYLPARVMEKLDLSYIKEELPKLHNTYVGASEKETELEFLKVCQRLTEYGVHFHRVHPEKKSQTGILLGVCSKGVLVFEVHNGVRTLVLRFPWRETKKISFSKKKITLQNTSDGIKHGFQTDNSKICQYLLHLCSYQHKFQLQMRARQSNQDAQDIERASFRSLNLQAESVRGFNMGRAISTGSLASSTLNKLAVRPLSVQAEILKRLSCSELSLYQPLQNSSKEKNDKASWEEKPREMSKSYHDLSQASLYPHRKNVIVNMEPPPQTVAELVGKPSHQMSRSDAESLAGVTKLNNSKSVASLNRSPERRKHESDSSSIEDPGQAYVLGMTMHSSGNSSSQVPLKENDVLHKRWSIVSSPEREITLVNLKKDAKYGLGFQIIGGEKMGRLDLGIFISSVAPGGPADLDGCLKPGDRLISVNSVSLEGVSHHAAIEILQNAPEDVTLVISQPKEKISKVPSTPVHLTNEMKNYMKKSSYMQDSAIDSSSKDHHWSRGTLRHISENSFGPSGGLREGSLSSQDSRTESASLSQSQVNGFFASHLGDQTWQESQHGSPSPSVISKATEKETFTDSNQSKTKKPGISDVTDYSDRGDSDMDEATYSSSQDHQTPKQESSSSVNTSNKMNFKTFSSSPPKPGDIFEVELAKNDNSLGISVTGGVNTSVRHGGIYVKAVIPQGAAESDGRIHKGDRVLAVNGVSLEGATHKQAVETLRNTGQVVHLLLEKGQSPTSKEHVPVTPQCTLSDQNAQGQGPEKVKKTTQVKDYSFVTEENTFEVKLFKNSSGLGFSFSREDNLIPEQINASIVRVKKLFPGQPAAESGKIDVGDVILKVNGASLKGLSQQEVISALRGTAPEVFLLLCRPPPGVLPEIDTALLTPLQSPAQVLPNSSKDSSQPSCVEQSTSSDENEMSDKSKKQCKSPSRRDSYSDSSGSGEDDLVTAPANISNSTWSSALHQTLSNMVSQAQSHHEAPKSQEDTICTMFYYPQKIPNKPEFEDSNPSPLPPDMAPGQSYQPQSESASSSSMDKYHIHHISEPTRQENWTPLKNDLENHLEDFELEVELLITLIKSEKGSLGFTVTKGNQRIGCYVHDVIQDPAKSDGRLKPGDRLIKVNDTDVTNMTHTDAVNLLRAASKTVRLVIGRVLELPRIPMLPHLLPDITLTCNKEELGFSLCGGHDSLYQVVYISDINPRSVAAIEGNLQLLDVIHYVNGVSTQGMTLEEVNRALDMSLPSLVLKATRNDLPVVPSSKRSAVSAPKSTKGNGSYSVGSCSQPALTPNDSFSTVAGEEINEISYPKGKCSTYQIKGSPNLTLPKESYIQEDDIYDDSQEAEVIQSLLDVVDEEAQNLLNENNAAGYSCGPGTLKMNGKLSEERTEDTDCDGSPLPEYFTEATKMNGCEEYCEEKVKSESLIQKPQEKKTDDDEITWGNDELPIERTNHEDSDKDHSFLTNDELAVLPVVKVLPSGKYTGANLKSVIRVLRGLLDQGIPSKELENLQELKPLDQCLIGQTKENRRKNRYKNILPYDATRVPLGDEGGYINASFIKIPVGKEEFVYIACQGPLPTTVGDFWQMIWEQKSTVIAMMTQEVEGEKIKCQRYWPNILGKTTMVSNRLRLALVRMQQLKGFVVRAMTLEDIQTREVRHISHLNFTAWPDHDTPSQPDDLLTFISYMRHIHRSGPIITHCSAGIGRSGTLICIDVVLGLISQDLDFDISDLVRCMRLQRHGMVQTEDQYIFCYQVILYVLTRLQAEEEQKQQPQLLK
UniProt P29350: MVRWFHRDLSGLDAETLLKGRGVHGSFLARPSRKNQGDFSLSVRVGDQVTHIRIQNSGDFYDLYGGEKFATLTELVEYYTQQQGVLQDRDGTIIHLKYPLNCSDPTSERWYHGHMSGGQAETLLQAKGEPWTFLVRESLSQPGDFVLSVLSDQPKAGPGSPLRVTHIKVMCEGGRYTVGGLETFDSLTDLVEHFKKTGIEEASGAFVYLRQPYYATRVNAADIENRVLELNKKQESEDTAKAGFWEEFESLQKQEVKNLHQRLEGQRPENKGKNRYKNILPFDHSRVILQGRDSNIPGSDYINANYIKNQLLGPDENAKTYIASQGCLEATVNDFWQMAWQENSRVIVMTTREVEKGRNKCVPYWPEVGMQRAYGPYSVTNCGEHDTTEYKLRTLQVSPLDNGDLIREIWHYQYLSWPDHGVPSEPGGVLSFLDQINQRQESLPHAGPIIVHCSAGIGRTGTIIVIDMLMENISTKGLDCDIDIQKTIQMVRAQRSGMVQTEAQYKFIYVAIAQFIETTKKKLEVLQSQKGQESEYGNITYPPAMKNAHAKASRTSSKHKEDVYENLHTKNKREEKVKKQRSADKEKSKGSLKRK
UniProt P28072: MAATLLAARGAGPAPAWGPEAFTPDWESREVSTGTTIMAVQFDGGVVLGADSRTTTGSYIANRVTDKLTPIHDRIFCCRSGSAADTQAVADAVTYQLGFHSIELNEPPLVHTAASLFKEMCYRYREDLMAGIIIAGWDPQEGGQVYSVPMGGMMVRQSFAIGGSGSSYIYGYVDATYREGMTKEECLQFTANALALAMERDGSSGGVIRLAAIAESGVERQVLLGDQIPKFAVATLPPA
UniProt Q8N490: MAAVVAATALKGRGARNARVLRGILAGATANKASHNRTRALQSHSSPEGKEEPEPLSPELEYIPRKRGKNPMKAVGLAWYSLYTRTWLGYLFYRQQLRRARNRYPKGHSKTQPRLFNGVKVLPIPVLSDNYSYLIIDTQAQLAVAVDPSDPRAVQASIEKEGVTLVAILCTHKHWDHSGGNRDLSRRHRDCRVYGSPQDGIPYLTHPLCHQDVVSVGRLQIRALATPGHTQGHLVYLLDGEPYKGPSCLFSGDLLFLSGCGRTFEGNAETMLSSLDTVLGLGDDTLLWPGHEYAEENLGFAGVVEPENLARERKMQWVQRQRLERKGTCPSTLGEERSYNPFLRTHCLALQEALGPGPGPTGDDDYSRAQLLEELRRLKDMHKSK
UniProt P53041: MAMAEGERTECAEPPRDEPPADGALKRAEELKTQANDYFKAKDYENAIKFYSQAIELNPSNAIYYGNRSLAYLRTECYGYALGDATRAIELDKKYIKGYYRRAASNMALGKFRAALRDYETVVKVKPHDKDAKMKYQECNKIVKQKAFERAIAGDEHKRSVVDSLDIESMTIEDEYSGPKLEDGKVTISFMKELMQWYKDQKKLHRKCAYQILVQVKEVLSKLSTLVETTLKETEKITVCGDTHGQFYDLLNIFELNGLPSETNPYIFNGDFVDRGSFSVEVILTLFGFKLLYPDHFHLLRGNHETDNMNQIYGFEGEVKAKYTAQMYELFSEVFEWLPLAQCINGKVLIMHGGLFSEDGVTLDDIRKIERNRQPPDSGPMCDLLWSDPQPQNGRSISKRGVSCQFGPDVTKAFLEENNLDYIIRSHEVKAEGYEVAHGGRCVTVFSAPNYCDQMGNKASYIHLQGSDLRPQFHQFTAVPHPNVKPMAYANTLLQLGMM
UniProt Q15181: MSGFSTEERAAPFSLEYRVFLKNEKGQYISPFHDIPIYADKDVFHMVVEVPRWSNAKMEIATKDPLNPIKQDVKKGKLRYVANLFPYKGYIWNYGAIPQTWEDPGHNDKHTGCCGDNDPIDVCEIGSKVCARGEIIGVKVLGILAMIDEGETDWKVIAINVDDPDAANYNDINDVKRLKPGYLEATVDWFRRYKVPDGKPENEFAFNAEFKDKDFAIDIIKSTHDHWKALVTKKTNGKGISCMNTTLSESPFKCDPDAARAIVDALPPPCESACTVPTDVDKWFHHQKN
UniProt O60828: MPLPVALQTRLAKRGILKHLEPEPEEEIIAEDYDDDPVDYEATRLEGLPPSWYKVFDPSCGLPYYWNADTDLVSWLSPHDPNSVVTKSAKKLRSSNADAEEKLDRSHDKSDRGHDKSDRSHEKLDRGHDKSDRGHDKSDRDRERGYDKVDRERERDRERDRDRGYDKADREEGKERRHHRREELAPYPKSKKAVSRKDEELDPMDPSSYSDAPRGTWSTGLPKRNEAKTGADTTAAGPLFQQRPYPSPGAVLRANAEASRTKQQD
UniProt Q9Y570: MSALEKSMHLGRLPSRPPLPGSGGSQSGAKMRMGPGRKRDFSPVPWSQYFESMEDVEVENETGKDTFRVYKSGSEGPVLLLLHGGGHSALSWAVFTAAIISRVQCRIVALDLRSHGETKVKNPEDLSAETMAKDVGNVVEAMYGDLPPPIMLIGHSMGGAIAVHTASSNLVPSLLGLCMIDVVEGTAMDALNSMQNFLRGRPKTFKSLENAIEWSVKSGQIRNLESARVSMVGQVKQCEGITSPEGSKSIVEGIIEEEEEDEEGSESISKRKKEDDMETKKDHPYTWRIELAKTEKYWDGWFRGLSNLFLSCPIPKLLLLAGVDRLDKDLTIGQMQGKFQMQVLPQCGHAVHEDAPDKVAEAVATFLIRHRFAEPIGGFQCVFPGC
UniProt Q13308: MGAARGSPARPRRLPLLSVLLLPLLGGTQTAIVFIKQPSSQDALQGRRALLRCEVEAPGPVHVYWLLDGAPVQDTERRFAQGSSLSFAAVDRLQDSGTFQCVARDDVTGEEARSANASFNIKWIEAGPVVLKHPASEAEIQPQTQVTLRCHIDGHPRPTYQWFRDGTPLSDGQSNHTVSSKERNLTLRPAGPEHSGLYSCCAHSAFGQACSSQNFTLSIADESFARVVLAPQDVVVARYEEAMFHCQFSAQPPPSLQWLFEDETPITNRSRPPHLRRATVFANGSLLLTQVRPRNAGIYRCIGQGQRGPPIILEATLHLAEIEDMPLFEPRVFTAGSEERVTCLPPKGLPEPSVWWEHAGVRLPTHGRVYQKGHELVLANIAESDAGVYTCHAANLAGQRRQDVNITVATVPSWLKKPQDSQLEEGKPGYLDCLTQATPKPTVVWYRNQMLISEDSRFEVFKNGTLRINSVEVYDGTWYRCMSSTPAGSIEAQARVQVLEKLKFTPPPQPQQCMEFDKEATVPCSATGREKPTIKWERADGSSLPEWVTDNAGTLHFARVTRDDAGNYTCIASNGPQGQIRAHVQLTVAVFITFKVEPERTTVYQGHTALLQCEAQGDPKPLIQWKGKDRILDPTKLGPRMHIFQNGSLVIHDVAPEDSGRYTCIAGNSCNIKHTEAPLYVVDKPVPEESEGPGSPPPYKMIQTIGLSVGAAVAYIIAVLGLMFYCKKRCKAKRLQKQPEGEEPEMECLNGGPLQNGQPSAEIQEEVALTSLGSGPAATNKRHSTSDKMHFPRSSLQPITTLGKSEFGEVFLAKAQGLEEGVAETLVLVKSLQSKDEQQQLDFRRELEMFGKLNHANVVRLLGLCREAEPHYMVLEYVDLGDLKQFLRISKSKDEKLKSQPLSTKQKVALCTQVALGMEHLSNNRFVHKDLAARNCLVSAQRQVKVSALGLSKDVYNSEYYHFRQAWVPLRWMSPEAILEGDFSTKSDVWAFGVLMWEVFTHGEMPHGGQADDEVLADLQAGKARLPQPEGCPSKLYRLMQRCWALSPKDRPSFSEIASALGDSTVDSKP
UniProt Q8NAV1: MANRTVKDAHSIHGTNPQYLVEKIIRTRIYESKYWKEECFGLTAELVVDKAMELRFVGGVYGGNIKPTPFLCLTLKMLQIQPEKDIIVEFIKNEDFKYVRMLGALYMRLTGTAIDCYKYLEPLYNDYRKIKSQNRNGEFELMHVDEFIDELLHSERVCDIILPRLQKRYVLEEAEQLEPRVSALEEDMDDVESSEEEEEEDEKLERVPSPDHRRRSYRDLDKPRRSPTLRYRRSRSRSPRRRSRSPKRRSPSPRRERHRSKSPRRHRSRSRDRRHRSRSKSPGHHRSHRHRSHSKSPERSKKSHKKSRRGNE

Compound: COc1ccc(Cn2ccc3cc(C)c(C(=O)NO)cc32)cc1
Assay: dose-dependent thermal stabilisation call (2D-TPP, DLPTP, 10% FDR) (binary (1 = stabilised)); higher = stabilised by the compound
Settings: system: HL-60 intact cells; concentration range 0.04-10 µM
Method: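 2D thermal proteome profiling in intact HL-60 cells treated with BRD-3811 (0, 0.04, 0.29, 2, 10 uM) for 90 min at 37 C, then heated 3 min at one of 12 temperatures (42-63.9 C). Soluble protein was quantified by TMT10 MS. The value is the DLPTP call of the paper: dose-dependent thermal stabilisation over all temperatures at 10% FDR (F-test of a dose-response against a flat model); one experiment, one call per tested protein.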

Row | Target | dose-dependent thermal stabilisation call
1 | PPCS (UniProt Q9HAB8) | inactive: 0
2 | PTPN13 (UniProt Q12923) | inactive: 0
3 | PTPN6 (UniProt P29350) | inactive: 0
4 | POLR2L (UniProt P62875) | inactive: 0
5 | PRKCD (UniProt Q05655) | inactive: 0
6 | PPP2R5D (UniProt Q14738) | inactive: 0
7 | POLR3H (UniProt Q9Y535) | inactive: 0
8 | PPIL5 (UniProt Q96L50) | inactive: 0
9 | PSMD8 (UniProt P48556) | inactive: 0
10 | PSMB6 (UniProt P28072) | inactive: 0
11 | PSMC3 (UniProt P17980) | inactive: 0
12 | PPP1R9B (UniProt Q96SB3) | inactive: 0
13 | PSMD2 (UniProt Q13200) | inactive: 0
14 | PNKD (UniProt Q8N490) | active: 1
15 | PTGR1 (UniProt Q14914) | inactive: 0
16 | PPP5C (UniProt P53041) | inactive: 0
17 | PSMA1 (UniProt P25786) | inactive: 0
18 | PPIG (UniProt Q13427) | inactive: 0

Row | Target | dose-dependent thermal stabilisation call
19 | PPP3R1 (UniProt P63098) | inactive: 0
20 | PNPT1 (UniProt Q8TCS8) | inactive: 0
21 | PPA1 (UniProt Q15181) | inactive: 0
22 | PPP2R1B (UniProt P30154) | inactive: 0
23 | PQBP1 (UniProt O60828) | inactive: 0
24 | POLR3E (UniProt Q9NVU0) | inactive: 0
25 | PRKCA (UniProt P17252) | inactive: 0
26 | PTDSS1 (UniProt P48651) | inactive: 0
27 | PPP6C (UniProt O00743) | inactive: 0
28 | PRKAR1A (UniProt P10644) | inactive: 0
29 | PORCN (UniProt Q9H237) | inactive: 0
30 | PPME1 (UniProt Q9Y570) | inactive: 0
31 | PTK7 (UniProt Q13308) | inactive: 0
32 | PRKDC (UniProt P78527) | inactive: 0
33 | PRPF38A (UniProt Q8NAV1) | inactive: 0
34 | PSEN1 (UniProt P49768) | inactive: 0
35 | PRRC1 (UniProt Q96M27) | inactive: 0
36 | PSMF1 (UniProt Q92530) | inactive: 0

Some of the entries so far, as a markdown table:

| Row | Target | dose-dependent thermal stabilisation call |
| --- | --- | --- |
| 9 | PSMD8 (UniProt P48556) | inactive: 0 |
| 10 | PSMB6 (UniProt P28072) | inactive: 0 |
| 11 | PSMC3 (UniProt P17980) | inactive: 0 |
| 12 | PPP1R9B (UniProt Q96SB3) | inactive: 0 |
| 13 | PSMD2 (UniProt Q13200) | inactive: 0 |
| 14 | PNKD (UniProt Q8N490) | active: 1 |
| 15 | PTGR1 (UniProt Q14914) | inactive: 0 |
| 16 | PPP5C (UniProt P53041) | inactive: 0 |
